PubChem BioAssay AID743454 | Peter MacCallum Cancer Centre | 2014
Shown is an unselected part of about 18,000 deposited reagents. 450 of all reagents (2.5%) were called active. 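Single biological run; no consistent viability z cut-off exists, so the class columns, not z-scores, define the calls.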

Purpose: 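Genes whose loss kills vorinostat-resistant colon cancer cells under vorinostat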 (primary screen)
Cell system: human HCT116-VR colon cancer cells, selected for vorinostat resistance
Knock-down reagent: siRNA pool against human genes, 40 nM siRNA pool
Time to read-out: vorinostat for 24 h, read-out about 72 h after transfection
Conditions: vorinostat at 2.5 µM final
Measurement: 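Two measures, CellTiter-Fluor viability and luminescent caspase 3/7 activity, each as fold change against same-plate mock wells, mean of duplicates, then screen-wide robust z-score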
Direction: viability robust z-score: higher = more viable cells than screen typical; caspase robust z-score: higher = more caspase 3/7 activity than screen typical
Hit rule: 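a knock-down is a hit when classed RV1 or RV2 for lowered viability, or CA1 or CA2 for caspase activation; those lethal without drug were dropped; hits were retested singly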

gene	viability hit class	caspase hit class	viability robust z-score	caspase robust z-score	call
POU2F3 (GeneID 25833)	no change	no change	1.36	-0.95	inactive
SCFD2 (GeneID 152579)	no change	no change	0.92	-1.12	inactive
PCDHGA1 (GeneID 56114)	no change	no change	-0.1	1.64	inactive
C2 (GeneID 717)	no change	no change	-0.5	3.2	inactive
SERPINA7 (GeneID 6906)	no change	no change	0.6	0.38	inactive
UQCRB (GeneID 7381)	no change	no change	0.92	-0.97	inactive
RPS21 (GeneID 6227)	no change	no change	-4.55	-0.26	inactive
CADM2 (GeneID 253559)	no change	no change	1.12	-0.01	inactive
SCUBE1 (GeneID 80274)	no change	CA2 (caspase activation)	-1.96	5.42	active
TMEM230 (GeneID 29058)	no change	no change	-0.29	-1.02	inactive
NOVA1 (GeneID 4857)	no change	no change	0.66	1.38	inactive
TIPARP (GeneID 25976)	no change	no change	-0.32	-1.02	inactive
SP140L (GeneID 93349)	no change	no change	-0.06	2.86	inactive
S1PR4 (GeneID 8698)	no change	no change	-0.43	-0.13	inactive
PMS1 (GeneID 5378)	no change	no change	0.88	-0.24	inactive
MIMS2 (GeneID 116151)	no change	no change	1.08	-0.19	inactive
HRG (GeneID 3273)	no change	no change	0.02	-0.18	inactive
FRYL (GeneID 285527)	no change	no change	1.19	-0.76	inactive
ALX4 (GeneID 60529)	no change	no change	-0.89	2.94	inactive
ARL14 (GeneID 80117)	RV2 (reduced viability)	no change	-3.59	-1.51	active
HAP1 (GeneID 9001)	no change	no change	-0.38	1.42	inactive
C16orf78 (GeneID 123970)	no change	no change	-0.87	-1.1	inactive
GHRL (GeneID 51738)	no change	no change	-0.26	1.53	inactive
DLK1 (GeneID 8788)	no change	no change	0.66	-0.06	inactive
NR4A1 (GeneID 3164)	no change	no change	-0.19	1.16	inactive
TBX18 (GeneID 9096)	no change	no change	0.87	-0.4	inactive
MUL1 (GeneID 79594)	no change	no change	0.64	0.44	inactive
FUNDC1 (GeneID 139341)	no change	no change	0.98	-0.24	inactive
KCTD17 (GeneID 79734)	no change	no change	-0.49	2.09	inactive
MCUB (GeneID 55013)	no change	no change	0.59	-0.56	inactive
PRR20A (GeneID 122183)	no change	no change	0.38	-0.4	inactive
CLCN6 (GeneID 1185)	no change	no change	-0.99	-1.11	inactive
UBN1 (GeneID 29855)	no change	no change	1.15	2.81	inactive
GOLGA6L9 (GeneID 440295)	no change	no change	-0.4	-0.2	inactive
MRPL28 (GeneID 10573)	no change	no change	0.96	-0.43	inactive
THAP2 (GeneID 83591)	no change	no change	1.3	-0.76	inactive
MTUS2 (GeneID 23281)	no change	no change	-0.68	0.98	inactive
PRR14L (GeneID 253143)	no change	no change	0.97	-0.94	inactive
CD4 (GeneID 920)	no change	no change	-0.56	0.29	inactive
GNB4 (GeneID 59345)	no change	no change	-0.12	-0.92	inactive
ETV7 (GeneID 51513)	no change	no change	-2.1	1.52	inactive
SLC25A16 (GeneID 8034)	no change	no change	0.08	0.74	inactive
CTDNEP1 (GeneID 23399)	no change	no change	-0.07	1.97	inactive
UGT2B4 (GeneID 7363)	no change	no change	-0.2	-0.5	inactive
IFI27 (GeneID 3429)	no change	no change	1.12	0.69	inactive
TNIK (GeneID 23043)	no change	no change	1	-0.28	inactive
SEC24C (GeneID 9632)	no change	no change	0.2	-0.53	inactive
PLPP4 (GeneID 196051)	no change	no change	0.82	1.04	inactive
HGD (GeneID 3081)	no change	no change	-0.74	-0.84	inactive
YTHDF1 (GeneID 54915)	no change	no change	1.41	0.1	inactive
OR51G2 (GeneID 81282)	no change	no change	0.74	0.73	inactive
ASIC2 (GeneID 40)	no change	no change	-1.73	-0.16	inactive
DLX3 (GeneID 1747)	no change	no change	-0.44	-0.86	inactive
MOCOS (GeneID 55034)	no change	no change	0.29	3.05	inactive
AFDN (GeneID 4301)	no change	no change	-0.06	-1.15	inactive
PTCD3 (GeneID 55037)	no change	no change	0.9	-0.59	inactive
MAP3K14 (GeneID 9020)	no change	no change	-0.3	0.87	inactive
